The whole screen tested about 2,400 compounds, of which about 20 (0.8%) were called active.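 How the source made its calls: active means AC50 no more than ten times the highest tested concentration, or full inhibition at every dose giving a flat fit (cut at about 30 µM in these data); inconclusive means flat fit with activity between 30% and 70%, or poor-quality invalid fit; inactive means AC50 more than ten times the top tested dose.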 This is one part of the list.
Assay: luciferase-based ADP detection interference – biochemical, luminescence, cell-free, homogeneous, artefact control for GSK-3a inhibitor project, dose response (AID 463205);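 further: kinase-free counter-screen against the ADP-Glo detection reagents only; potency is for inhibitors that reduce the luminescence signal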
Conditions: Cell-free ADP-Glo detection reagents, 5 uM ADP

AC50, inactive:
CSc1nc(NCC(C)C)nc(N2CCOCC2)n1 > 30 µM
Nc1nonc1-n1nnc(C(=O)N/N=C/c2ccc(F)cc2)c1-c1cccs1 > 30 µM
CCn1c2ccc(C)cc2c2nc3cc(C(=O)O)ccc3nc21 > 30 µM
CCCc1[nH]nc2c1C(c1ccc(O)c(OC)c1)C(C#N)=C(N)O2 (centres undefined) > 30 µM
O=C(Oc1cccc([N+](=O)[O-])c1)N1CCCCC1 > 30 µM
COc1cc(/C=N/NC(=O)c2cnccn2)ccc1O > 30 µM
O=S(=O)(NCC1CCCO1)c1ccc(Cl)nc1 (centres undefined) > 30 µM
C/C(=N\NC(=O)c1nnn(-c2nonc2N)c1-c1ccccc1)c1cccnc1 > 30 µM
N#Cc1sc2nc3c(c(-c4cccnc4)c2c1N)CCC3 > 30 µM
NC(=O)c1cc([N+](=O)[O-])c(Cl)cc1NCc1cccnc1 > 30 µM
Fc1ccccc1/C=N/Nc1cc(N2CCCCC2)ncn1 > 30 µM
Nn1c(-c2ccc(O)cc2)nnc1-c1ccc(O)cc1 > 30 µM
C#CCOCCOCCOCCNc1nc(N2CCN(C(=O)CCCCCCCCCCNC(=O)[C@H]([C@@H](C)CC)n3cc(CCCCCN)nn3)CC2)nc(N2CCN(C(=O)CCCCCCCCCCNC(=O)[C@H](CO)n3cc(CCCCCN)nn3)CC2)n1 > 30 µM
COc1ccc(CCNc2ccc(S(=O)(=O)N3CCCC3)cc2[N+](=O)[O-])cc1 > 30 µM
Cc1cc(C(=O)c2cccs2)c(N)s1 > 30 µM
CC(=O)Oc1ccc(C(=O)c2ccccc2)c(OC(C)=O)c1 > 30 µM
CC(C)OCCCNc1nc2c([nH]1)c(=O)n(C)c(=O)n2C > 30 µM
CSc1ccc(/C=C2\NC(=O)NC2=O)cc1 > 30 µM
CN(C)c1nc2sc3c(c2c(=O)n1C)CC(C)(C)OC3 > 30 µM
CC(C)c1c(C(=O)N/N=C/c2ccncc2)nnn1-c1nonc1N > 30 µM
CCN1CCN(c2c(Cl)cccc2NC(=O)c2ccco2)CC1 > 30 µM
COc1ccc(OC)c(NC(=O)c2nnn(Cc3ccc(Br)cc3F)c2N)c1 > 30 µM
Clc1ccc(CSc2nncn2-c2ccc3c(c2)OCCO3)cc1 > 30 µM
CC(C)(C)OC(=O)N1CC=C2C(C#N)=C(N)C(C#N)(C#N)C(c3cccs3)C2C1 (centres undefined) > 30 µM
CN(c1ccccc1)c1nc(-n2ccnc2)nc(-n2ccnc2)n1 > 30 µM
CC(=O)Nc1ccc(NC(=O)CSc2nc3[nH]ncc3c(=O)n2-c2ccccc2)cc1 > 30 µM
CCOc1ccc2nc(NC(=O)COC)sc2c1 > 30 µM
COc1ccccc1C(=O)NNC(=O)c1cccc(Cl)c1 > 30 µM
O=c1cc(-c2ccccc2)oc2ccccc12 > 30 µM
O=C(N/N=C/c1ccc(O)c(O)c1)NC12CC3CC(CC(C3)C1)C2 > 30 µM
CC(=S)/C=C1\Sc2ccccc2N1C > 30 µM
COc1ccc(Nc2ccc(S(=O)(=O)N3CCCCC3)cc2[N+](=O)[O-])cc1OC > 30 µM
O=C(CSc1ccc2nnc(-c3ccccc3)n2n1)N1CCCc2ccccc21 > 30 µM
COCCNc1nc(C)cc(-c2cc(C(=O)NC3CCCC3)on2)n1 > 30 µM
COC1(OC)N=C(NC(=O)Nc2ccccc2)C2(C#N)C(c3ccccc3)C12C#N (centres undefined) > 30 µM
CCOC(=O)c1c(Cc2ccccc2)c[nH]c1C > 30 µM
N#CCCn1cc(/C=N/O)c(-c2ccccc2)n1 > 30 µM
Nc1nonc1-n1nnc(C(=O)N/N=C/c2ccc(Cl)cc2Cl)c1CN1CCOCC1 > 30 µM
CCOc1ccc2[nH]cc(S(=O)(=O)c3ccc(C)cc3)c(=O)c2c1 > 30 µM
CCOC(=O)c1sc(NC(=O)CSc2ncn[nH]2)c(C#N)c1C > 30 µM
CN(C)c1ccc(/C=N/NC(=O)c2nnn(-c3nonc3N)c2CN(C)c2ccccc2)cc1 > 30 µM
Cc1cccc(-c2nnc3n2N=C(c2ccccc2)CS3)c1 > 30 µM
O=C(O)c1[nH]c2ccc([N+](=O)[O-])cc2c1-c1ccccc1 > 30 µM
Cc1cc(C)n(CCC(=O)N=Nc2c(O)[nH]c3ccc(Br)cc23)n1 > 30 µM
CCCNC(=O)OCCC12CC3CC(CC(C3)C1)C2 > 30 µM
CCOC(=O)c1sc(NC(=O)C2CC2)cc1C > 30 µM
CCOC(=O)C1=C(C)NC(C)=C(C(=O)OCC)C1c1sccc1C > 30 µM
N#CCCn1cc(/C=N/O)c(-c2ccc(Cl)cc2)n1 > 30 µM
O=C(CSc1nnc(SCc2ccccc2Cl)s1)N/N=C/c1ccc(C(=O)O)cc1 > 30 µM
CC1=C(C#N)c2nc(N)c(C#N)c(C)c2/C1=C\c1ccc(OCC(=O)O)c(Cl)c1 > 30 µM
O=C(O)Cn1c(=O)c2c3c(sc2n(Cc2ccc(F)cc2)c1=O)CCCC3 > 30 µM
CCOC(=O)N1CCc2c(sc3[nH]c(=S)[nH]c(=S)c23)C1 > 30 µM
O=C(O)C1CCCC[C@H]1C(=O)Nc1ncc([N+](=O)[O-])s1 (some centres undefined) > 30 µM
Cc1nc(SCC(=O)NCC2CCCO2)c2c(C)c(C)sc2n1 (centres undefined) > 30 µM
COCCCNc1ncnc2nc[nH]c12 > 30 µM
CCOc1ccc(N=C2NC(=O)SC2CC(=O)OC)cc1 (centres undefined) > 30 µM
N#Cc1c2c(c(NCc3ccco3)n3c1nc1ccccc13)CCC2 > 30 µM
Cc1cccc(N=c2oc3cc(O)ccc3cc2C(N)=O)c1 > 30 µM
CCOC(=O)N1CCC(N2CCN(S(=O)(=O)c3ccc(Cl)cc3)CC2)CC1 > 30 µM

Entries above with fluorine (four):
AC50, inactive:
Nc1nonc1-n1nnc(C(=O)N/N=C/c2ccc(F)cc2)c1-c1cccs1 > 30 µM
Fc1ccccc1/C=N/Nc1cc(N2CCCCC2)ncn1 > 30 µM
COc1ccc(OC)c(NC(=O)c2nnn(Cc3ccc(Br)cc3F)c2N)c1 > 30 µM
O=C(O)Cn1c(=O)c2c3c(sc2n(Cc2ccc(F)cc2)c1=O)CCCC3 > 30 µM

Reference: PubChem BioAssay AID463205 (Broad Institute, 2010)
